Results: the supplement of paper PMC12067093, “Discovery and optimisation of a covalent ligand for TRIM25 and its application to targeted protein ubiquitination” (Chemical Science, 2025)
The list shows a part of the results.

Protein sequences, listed by entry. Tags and fused reporters are not part of them. Lines headed by an entry give the natural chain unless they say otherwise; changes in a name come on top.
UniProt Q14142: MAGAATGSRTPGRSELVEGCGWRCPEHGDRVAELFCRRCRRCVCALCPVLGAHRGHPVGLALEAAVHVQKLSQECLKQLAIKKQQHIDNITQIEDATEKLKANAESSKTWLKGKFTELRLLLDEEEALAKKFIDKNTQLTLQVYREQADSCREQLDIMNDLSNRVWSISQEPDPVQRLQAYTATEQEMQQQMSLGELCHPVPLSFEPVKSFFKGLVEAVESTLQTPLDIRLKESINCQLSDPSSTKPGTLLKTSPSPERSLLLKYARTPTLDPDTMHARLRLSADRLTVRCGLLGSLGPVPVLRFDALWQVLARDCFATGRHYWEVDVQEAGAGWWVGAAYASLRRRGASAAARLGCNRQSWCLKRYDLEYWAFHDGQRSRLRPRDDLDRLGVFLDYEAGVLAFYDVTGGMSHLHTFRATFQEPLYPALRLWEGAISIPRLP
UniProt Q7L0Y3: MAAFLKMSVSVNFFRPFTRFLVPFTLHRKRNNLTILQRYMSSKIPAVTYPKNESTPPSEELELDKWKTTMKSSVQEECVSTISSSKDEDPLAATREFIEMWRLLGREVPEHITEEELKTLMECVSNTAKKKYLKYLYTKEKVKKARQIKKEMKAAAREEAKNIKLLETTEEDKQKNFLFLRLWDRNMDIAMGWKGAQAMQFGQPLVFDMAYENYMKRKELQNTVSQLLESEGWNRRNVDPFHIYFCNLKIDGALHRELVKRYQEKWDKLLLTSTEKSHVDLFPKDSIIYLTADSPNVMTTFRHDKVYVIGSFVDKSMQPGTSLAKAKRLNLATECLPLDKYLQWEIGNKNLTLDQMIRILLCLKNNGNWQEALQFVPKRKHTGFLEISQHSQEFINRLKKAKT
UniProt Q9NSU2: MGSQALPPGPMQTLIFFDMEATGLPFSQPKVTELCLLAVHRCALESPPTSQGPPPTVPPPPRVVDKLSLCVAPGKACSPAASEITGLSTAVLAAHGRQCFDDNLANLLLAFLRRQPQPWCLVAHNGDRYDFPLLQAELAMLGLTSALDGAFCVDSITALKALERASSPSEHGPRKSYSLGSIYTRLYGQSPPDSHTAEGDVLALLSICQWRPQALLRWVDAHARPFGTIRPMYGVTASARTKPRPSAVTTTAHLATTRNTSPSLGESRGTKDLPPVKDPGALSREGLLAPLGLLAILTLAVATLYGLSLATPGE
UniProt Q9NXH9: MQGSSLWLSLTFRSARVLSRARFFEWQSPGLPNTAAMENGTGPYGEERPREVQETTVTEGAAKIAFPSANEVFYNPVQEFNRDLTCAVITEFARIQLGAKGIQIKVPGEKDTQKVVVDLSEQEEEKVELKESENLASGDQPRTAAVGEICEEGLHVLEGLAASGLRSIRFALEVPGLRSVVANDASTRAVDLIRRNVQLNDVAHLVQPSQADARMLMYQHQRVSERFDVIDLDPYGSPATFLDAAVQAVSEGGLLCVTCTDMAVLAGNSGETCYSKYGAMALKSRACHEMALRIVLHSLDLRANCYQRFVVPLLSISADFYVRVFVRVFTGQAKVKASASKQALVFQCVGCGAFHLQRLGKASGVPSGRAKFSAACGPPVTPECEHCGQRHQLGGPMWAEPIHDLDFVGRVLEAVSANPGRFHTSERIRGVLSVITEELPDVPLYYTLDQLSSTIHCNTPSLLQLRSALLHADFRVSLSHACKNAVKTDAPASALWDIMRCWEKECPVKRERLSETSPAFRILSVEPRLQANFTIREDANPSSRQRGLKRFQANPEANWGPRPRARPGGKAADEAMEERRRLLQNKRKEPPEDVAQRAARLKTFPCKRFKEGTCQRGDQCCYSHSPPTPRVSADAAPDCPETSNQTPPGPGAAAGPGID
UniProt O14545: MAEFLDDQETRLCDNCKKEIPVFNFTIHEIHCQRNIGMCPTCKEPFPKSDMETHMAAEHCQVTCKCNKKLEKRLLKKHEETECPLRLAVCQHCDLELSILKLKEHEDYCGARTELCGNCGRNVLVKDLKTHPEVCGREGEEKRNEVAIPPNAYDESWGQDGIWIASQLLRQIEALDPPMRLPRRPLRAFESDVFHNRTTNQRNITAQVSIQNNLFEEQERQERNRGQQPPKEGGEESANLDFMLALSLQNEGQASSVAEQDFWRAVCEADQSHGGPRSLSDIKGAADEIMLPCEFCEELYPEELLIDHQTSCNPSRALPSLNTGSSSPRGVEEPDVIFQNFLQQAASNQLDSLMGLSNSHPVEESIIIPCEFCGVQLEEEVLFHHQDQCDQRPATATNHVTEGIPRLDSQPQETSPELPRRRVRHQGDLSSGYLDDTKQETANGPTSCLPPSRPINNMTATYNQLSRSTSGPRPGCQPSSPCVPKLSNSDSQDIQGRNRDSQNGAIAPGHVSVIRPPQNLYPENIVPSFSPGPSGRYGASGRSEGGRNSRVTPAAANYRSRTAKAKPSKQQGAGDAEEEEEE
UniProt P62995: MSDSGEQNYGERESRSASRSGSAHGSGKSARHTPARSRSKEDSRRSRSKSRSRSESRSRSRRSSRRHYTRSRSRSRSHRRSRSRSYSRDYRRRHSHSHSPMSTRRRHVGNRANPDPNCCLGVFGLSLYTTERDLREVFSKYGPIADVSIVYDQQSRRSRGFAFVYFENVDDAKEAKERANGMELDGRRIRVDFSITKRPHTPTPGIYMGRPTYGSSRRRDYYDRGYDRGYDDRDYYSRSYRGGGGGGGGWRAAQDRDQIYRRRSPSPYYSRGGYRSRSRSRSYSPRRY
UniProt P29144: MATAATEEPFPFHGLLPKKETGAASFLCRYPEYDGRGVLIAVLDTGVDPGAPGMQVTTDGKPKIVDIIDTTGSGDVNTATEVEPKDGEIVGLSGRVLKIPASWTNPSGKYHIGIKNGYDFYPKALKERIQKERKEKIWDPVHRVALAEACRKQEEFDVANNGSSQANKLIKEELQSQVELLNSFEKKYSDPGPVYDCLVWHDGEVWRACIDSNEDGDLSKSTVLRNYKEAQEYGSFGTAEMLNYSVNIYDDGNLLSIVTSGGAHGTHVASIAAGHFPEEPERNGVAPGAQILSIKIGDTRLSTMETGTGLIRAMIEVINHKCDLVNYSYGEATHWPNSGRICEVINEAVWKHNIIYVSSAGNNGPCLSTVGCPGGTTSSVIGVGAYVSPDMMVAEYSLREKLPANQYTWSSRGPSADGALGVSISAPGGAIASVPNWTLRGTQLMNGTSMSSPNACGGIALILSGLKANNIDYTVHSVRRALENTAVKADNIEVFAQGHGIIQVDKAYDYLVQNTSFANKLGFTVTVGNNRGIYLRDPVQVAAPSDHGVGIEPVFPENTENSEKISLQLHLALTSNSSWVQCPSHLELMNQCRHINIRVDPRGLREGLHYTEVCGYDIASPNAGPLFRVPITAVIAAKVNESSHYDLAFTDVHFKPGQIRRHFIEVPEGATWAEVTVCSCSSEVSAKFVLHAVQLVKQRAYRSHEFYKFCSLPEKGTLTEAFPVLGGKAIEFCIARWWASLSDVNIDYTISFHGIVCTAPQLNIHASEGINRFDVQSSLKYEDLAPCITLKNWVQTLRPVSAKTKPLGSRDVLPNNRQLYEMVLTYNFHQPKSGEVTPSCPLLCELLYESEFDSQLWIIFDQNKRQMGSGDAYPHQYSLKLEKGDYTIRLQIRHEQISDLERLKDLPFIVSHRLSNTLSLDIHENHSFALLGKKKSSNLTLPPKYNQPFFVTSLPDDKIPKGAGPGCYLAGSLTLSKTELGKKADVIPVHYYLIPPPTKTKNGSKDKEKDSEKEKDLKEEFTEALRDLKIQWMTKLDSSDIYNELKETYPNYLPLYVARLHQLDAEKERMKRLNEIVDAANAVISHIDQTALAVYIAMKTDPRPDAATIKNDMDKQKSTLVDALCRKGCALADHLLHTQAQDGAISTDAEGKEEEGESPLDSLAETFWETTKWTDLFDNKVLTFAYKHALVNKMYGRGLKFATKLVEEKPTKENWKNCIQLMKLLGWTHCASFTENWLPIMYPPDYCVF
UniProt Q12933: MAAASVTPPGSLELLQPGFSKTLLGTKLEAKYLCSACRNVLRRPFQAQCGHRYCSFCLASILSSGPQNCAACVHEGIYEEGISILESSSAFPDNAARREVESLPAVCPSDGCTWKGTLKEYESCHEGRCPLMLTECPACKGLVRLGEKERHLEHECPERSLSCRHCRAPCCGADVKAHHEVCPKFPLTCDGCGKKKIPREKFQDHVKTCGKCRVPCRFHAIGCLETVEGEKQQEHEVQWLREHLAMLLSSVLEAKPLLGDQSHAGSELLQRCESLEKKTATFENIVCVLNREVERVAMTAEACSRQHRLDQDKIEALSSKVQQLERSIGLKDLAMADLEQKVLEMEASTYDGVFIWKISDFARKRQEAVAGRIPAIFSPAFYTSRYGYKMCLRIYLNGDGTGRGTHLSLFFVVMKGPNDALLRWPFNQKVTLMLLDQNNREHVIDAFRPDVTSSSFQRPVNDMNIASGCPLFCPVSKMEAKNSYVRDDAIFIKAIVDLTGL
UniProt Q6Q0C0: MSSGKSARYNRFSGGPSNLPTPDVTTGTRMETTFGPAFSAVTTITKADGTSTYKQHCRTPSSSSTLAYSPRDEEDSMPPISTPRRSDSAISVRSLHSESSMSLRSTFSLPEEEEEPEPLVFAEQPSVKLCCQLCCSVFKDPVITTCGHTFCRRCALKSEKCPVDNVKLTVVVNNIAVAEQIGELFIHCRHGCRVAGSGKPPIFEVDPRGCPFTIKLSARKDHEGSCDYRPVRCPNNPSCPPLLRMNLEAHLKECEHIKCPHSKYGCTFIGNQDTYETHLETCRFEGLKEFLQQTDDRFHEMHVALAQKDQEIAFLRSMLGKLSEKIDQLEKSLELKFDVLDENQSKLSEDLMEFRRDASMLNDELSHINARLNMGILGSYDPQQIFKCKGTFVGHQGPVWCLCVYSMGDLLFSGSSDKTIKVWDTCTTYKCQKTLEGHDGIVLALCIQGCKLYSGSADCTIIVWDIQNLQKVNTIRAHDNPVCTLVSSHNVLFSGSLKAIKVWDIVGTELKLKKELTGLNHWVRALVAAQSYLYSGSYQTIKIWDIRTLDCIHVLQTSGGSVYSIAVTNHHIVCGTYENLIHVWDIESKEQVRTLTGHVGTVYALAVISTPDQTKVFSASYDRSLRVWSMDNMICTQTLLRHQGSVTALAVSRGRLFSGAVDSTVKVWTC
UniProt Q86W33: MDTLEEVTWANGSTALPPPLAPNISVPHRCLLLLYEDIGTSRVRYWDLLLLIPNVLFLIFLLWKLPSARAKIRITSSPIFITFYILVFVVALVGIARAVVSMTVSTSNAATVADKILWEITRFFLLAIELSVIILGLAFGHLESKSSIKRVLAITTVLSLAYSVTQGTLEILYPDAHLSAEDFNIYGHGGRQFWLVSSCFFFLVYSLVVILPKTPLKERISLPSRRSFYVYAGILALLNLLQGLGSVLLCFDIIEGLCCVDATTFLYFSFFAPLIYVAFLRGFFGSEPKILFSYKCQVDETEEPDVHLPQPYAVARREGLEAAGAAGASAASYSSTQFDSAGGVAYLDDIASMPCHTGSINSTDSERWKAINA
UniProt Q9BYJ4: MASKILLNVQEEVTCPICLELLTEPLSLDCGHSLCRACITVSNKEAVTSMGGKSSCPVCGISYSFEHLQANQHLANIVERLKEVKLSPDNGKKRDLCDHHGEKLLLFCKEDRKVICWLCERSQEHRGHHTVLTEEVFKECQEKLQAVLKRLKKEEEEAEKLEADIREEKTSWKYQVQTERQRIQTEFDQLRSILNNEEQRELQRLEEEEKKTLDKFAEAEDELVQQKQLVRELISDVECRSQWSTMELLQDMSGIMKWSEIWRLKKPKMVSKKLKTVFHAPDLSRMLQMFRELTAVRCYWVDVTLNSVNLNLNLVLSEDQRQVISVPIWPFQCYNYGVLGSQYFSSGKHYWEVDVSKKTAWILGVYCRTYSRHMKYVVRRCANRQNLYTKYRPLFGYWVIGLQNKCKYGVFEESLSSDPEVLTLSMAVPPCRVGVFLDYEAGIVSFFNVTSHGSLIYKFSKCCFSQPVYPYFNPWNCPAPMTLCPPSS
UniProt O43617, whole entry: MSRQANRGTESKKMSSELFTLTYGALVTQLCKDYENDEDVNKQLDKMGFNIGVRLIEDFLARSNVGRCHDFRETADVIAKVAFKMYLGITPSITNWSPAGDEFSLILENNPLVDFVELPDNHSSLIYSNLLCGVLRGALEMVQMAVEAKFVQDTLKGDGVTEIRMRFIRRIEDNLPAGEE

compound: Cc1cc(ccc1-c1ccccc1)C(=O)N1CCCN(CC1)C(=O)CCl [compound 10]; assay: probe-labelled cysteine peptide fold change vs DMSO (competition) (log2 fold change); higher = less target engagement (more negative = stronger competition); settings: 10 µM; THP-1; incubation time: 4 h
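Further: competitive profiling in live THP-1 cells: cysteine peptides tagged with an iodoacetamide desthiobiotin (IA-DTB) probe, intensity after compound treatment relative to DMSO-treated cells.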

Target | probe-labelled cysteine peptide fold change
TRMT112_Q9UI30_100_TMHHLLLEVEVIEGTLQCPESGR (UniProt Q9UI30) | -0.122
TRAPPC10_P48553_696_SPSDNSLNTTGIICR (UniProt P48553) | -0.0232
TRERF1_Q96PN7_1065_QKPGGTQSGYCSVK (UniProt Q96PN7) | -0.0802
TRIM25_Q14258_107+110_ASAPSPNAQVACDHCLK (UniProt Q14258) | -0.0215
TPRKB_Q9Y3C4_13_MQLTHQLDLFPECR (UniProt Q9Y3C4) | -0.0844
TRIM14_Q14142_20_SELVEGCGWR (UniProt Q14142) | -0.0963
TRIM56_Q9BRZ2_21_VSHGSSPSLLEALSSDFLACK (UniProt Q9BRZ2) | 0.423
TRMT10C_Q7L0Y3_335_LNLATECLPLDK (UniProt Q7L0Y3) | -0.00415
TREX1_Q9NSU2_77_ACSPAASEITGLSTAVLAAHGR (UniProt Q9NSU2) | 0.116
TRMT1_Q9NXH9_482_VSLSHACK (UniProt Q9NXH9) | -0.0941
TRMT1L_Q7Z2T5_320_VTINDLNENSVTLIQENCHLNK (UniProt Q7Z2T5) | -0.042
TRIP6_Q15654_307+310_VFHVGCFVCSTCR (UniProt Q15654) | -0.027
TRAPPC9_Q96Q05_1035_EAVAACQVGDPVR (UniProt Q96Q05) | -0.101
TRIM25_Q14258_174+176_EFFCPEHSECICHICLVEHK (UniProt Q14258) | -0.0161
TRAFD1_O14545_135_THPEVCGR (UniProt O14545) | -0.0334
TRA2B_P62995_118+119_ANPDPNCCLGVFGLSLYTTER (UniProt P62995) | -0.198
TPP2_P29144_209_ACIDSNEDGDLSK (UniProt P29144) | 0.142
TRMT112_Q9UI30_33_ICPVEFNPNFVAR (UniProt Q9UI30) | -0.0763

Target | probe-labelled cysteine peptide fold change
TRAF2_Q12933_156_HLEHECPER (UniProt Q12933) | -0.0324
TRAF2_Q12933_182_AHHEVCPK (UniProt Q12933) | 0.048
TRAPPC9_Q96Q05_317_NCLSPEDIIDK (UniProt Q96Q05) | 0.12
TRIP4_Q15650_171_LAVLLPGRHPCDCLGQK (UniProt Q15650) | 0.0521
TRIM36_Q9NQ86_469_INRDDEMSWNEIEVCGTSK (UniProt Q9NQ86) | -0.125
TRIM25_Q14258_176_EFFCPEHSECICHICLVEHK (UniProt Q14258) | 0.158
TRIM25_Q14258_157_CSQHNR (UniProt Q14258) | 0.102
TRIP6_Q15654_279+282_LVHDMNHPPSGEYFGQCGGCGEDVVGDGAGVVALDR (UniProt Q15654) | -0.0377
TRANK1_O15050_1158_NHVLCQEVQR (UniProt O15050) | -0.266
TRIM24_O15164_882_DLSKPEVEYDCDAPSHNSEK (UniProt O15164) | -0.0206
TRAF7_Q6Q0C0_226_DHEGSCDYRPVR (UniProt Q6Q0C0) | -0.0112
TPRA1_Q86W33_296_CQVDETEEPDVHLPQPYAVAR (UniProt Q86W33) | -0.418
TRIM25_Q14258_168+174_EFFCPEHSECICHICLVEHK (UniProt Q14258) | 0.141
TRIM36_Q9NQ86_363_ETDQSCFVQTAK (UniProt Q9NQ86) | -0.162
TRIM34_Q9BYJ4_239_ELISDVECR (UniProt Q9BYJ4) | -0.253
TRIM24_O15164_246_DCQLLEHK (UniProt O15164) | 0.103
TRIM33_Q9UPN9_241_TCIEAHQR (UniProt Q9UPN9) | 0.214
TRAPPC3_O43617_31_MSSELFTLTYGALVTQLCK (UniProt O43617) | -0.0343

same assay, conditions: 50 µM; THP-1; incubation time: 4 h

Target | probe-labelled cysteine peptide fold change
TRMT112_Q9UI30_100_TMHHLLLEVEVIEGTLQCPESGR (UniProt Q9UI30) | -0.125
TRAPPC10_P48553_696_SPSDNSLNTTGIICR (UniProt P48553) | -0.261
TRERF1_Q96PN7_1065_QKPGGTQSGYCSVK (UniProt Q96PN7) | -0.55
TRIM25_Q14258_107+110_ASAPSPNAQVACDHCLK (UniProt Q14258) | -0.473
TPRKB_Q9Y3C4_13_MQLTHQLDLFPECR (UniProt Q9Y3C4) | 0.037
TRIM14_Q14142_20_SELVEGCGWR (UniProt Q14142) | -0.468
TRIM56_Q9BRZ2_21_VSHGSSPSLLEALSSDFLACK (UniProt Q9BRZ2) | -0.66
TRMT10C_Q7L0Y3_335_LNLATECLPLDK (UniProt Q7L0Y3) | 0.0919
TREX1_Q9NSU2_77_ACSPAASEITGLSTAVLAAHGR (UniProt Q9NSU2) | 0.292
TRMT1_Q9NXH9_482_VSLSHACK (UniProt Q9NXH9) | -0.206
TRMT1L_Q7Z2T5_320_VTINDLNENSVTLIQENCHLNK (UniProt Q7Z2T5) | -1.02
TRIP6_Q15654_307+310_VFHVGCFVCSTCR (UniProt Q15654) | -0.174
TRAPPC9_Q96Q05_1035_EAVAACQVGDPVR (UniProt Q96Q05) | 0.181
TRIM25_Q14258_174+176_EFFCPEHSECICHICLVEHK (UniProt Q14258) | -0.0842
TRAFD1_O14545_135_THPEVCGR (UniProt O14545) | -0.0502
TRA2B_P62995_118+119_ANPDPNCCLGVFGLSLYTTER (UniProt P62995) | -0.0884
TPP2_P29144_209_ACIDSNEDGDLSK (UniProt P29144) | 0.076
TRMT112_Q9UI30_33_ICPVEFNPNFVAR (UniProt Q9UI30) | -0.358

Target | probe-labelled cysteine peptide fold change
TRAF2_Q12933_156_HLEHECPER (UniProt Q12933) | -0.107
TRAF2_Q12933_182_AHHEVCPK (UniProt Q12933) | -0.202
TRAPPC9_Q96Q05_317_NCLSPEDIIDK (UniProt Q96Q05) | 0.213
TRIP4_Q15650_171_LAVLLPGRHPCDCLGQK (UniProt Q15650) | -0.298
TRIM36_Q9NQ86_469_INRDDEMSWNEIEVCGTSK (UniProt Q9NQ86) | 0.0977
TRIM25_Q14258_176_EFFCPEHSECICHICLVEHK (UniProt Q14258) | 0.0977
TRIM25_Q14258_157_CSQHNR (UniProt Q14258) | -0.0362
TRIP6_Q15654_279+282_LVHDMNHPPSGEYFGQCGGCGEDVVGDGAGVVALDR (UniProt Q15654) | -0.185
TRANK1_O15050_1158_NHVLCQEVQR (UniProt O15050) | -0.0122
TRIM24_O15164_882_DLSKPEVEYDCDAPSHNSEK (UniProt O15164) | -0.316
TRAF7_Q6Q0C0_226_DHEGSCDYRPVR (UniProt Q6Q0C0) | -0.171
TPRA1_Q86W33_296_CQVDETEEPDVHLPQPYAVAR (UniProt Q86W33) | -1.52
TRIM25_Q14258_168+174_EFFCPEHSECICHICLVEHK (UniProt Q14258) | -0.0787
TRIM36_Q9NQ86_363_ETDQSCFVQTAK (UniProt Q9NQ86) | -0.137
TRIM34_Q9BYJ4_239_ELISDVECR (UniProt Q9BYJ4) | -0.494
TRIM24_O15164_246_DCQLLEHK (UniProt O15164) | -0.116
TRIM33_Q9UPN9_241_TCIEAHQR (UniProt Q9UPN9) | 0.367
TRAPPC3_O43617_31_MSSELFTLTYGALVTQLCK (UniProt O43617) | 0.356
